Screen size: about 300,000 compounds; about 3,700 (1.2%) were called active. Inconclusive results, whose numbers are uncertain, are shown with a selection of clear calls. Calls follow the shape of the full dose curve; tested in HEK293 cells. A potency beside an inconclusive call is a rough fit, not a confirmed value.
assay: qHTS for Inhibitors of binding or entry into cells for Lassa Virus; settings: Lassa virus pseudotype entry inhibition, cell reporter; series mostly up to 37.9 µM; also: nearly all actives have a fitted effect of over 50% in size
Potency is read from the fitted curve at half-maximal effect.

SMILES | Potency
C=CCSc1ncnc2c1oc1nc3c(cc12)COC(C)(C)C3 | inactive
Cc1ccc(NC(=O)CN2CCCC2c2cccn2C)cc1C (centres undefined) | inconclusive: 31.6 µM [activator, partial curve, poor fit]
COc1ccc(NC(=O)Cc2ccccc2)cn1 | inconclusive: 4.47 µM [activator, full curve]
Cc1ccc(-c2cn3cccnc3n2)cc1NC(=O)c1ccc(Br)o1 | inconclusive: 14.6 µM [activator, partial curve, poor fit]
Cc1oc(-c2ccccc2)nc1C(=O)OCC(=O)NC(=O)NCC(C)C | inactive
O=C(O)c1ccccc1-c1cn2cc(Cl)ccc2n1 | inconclusive: 35.5 µM [inhibitor, single point]
CC1(c2ccc3ccccc3c2)NC(=O)N(CC(=O)N2CCC(C(N)=O)CC2)C1=O (centres undefined) | inconclusive: 0.794 µM [activator, full curve, poor fit]
COC(=O)/C(=N/Nc1ccccc1)N1CCCc2ccccc21 | inactive
C=CCn1c(=O)c2c(nc(Br)n2Cc2ccccc2Cl)n(C)c1=O | inconclusive: 14.1 µM [inhibitor, partial curve, poor fit]
CCOP(=O)(OCC)C(NC(=O)c1ccccc1C)C(Cl)(Cl)Cl (centres undefined) | inactive
O=S(=O)(O)c1ccc(O)c2cc(Nc3ccccc3)ccc12 | inactive
COc1cccc(NC(=S)NN2CCN(C)CC2)c1 | inactive
CC(C)CC(=NNC(=O)c1ccncc1)c1cc(Cl)ccc1O | active: 3.16 µM
O=C(CSc1ccccc1)Nc1ccc(N2CCOCC2)cc1 | inconclusive: 16.4 µM [activator, single point]
COC(=O)N/N=C/c1cccc(OCCSc2ccc(Cl)cc2)c1 | inconclusive: 29.1 µM [inhibitor, single point]
Clc1c(-c2ccccc2)nnn1-c1ccccc1 | inconclusive: 2.31 µM [activator, partial curve]
CCc1ccc(C(=O)/C=C/Nc2ccc(S(=O)(=O)Nc3cnc4ccccc4n3)cc2)cc1 | inactive
Cc1ccc(/C=C/C(=O)Nc2nnc(C)s2)o1 | inactive
COc1ccc(C2CC(c3ccc(Cl)cc3)=NN2C(=O)c2cccc([N+](=O)[O-])c2)cc1 (centres undefined) | inconclusive: 15.8 µM [inhibitor, partial curve, poor fit]
Cc1ccc(OC(=O)C2c3ccccc3Oc3ccccc32)cc1C | active: 18.4 µM
O=C(NCC1CCCO1)c1cccc(Oc2ccc([N+](=O)[O-])cc2Cl)c1 (centres undefined) | inconclusive: 8.91 µM [inhibitor, single point]
COCn1c(=O)c2c(nc(SC3=NCCS3)n2Cc2ccccc2C)n(COC)c1=O | inconclusive: 29.1 µM [inhibitor, single point]
CN(C)c1nc(F)c(F)c(S(=O)(=O)c2ccccc2)c1F | inconclusive: 35.5 µM [activator, single point]

SMILES | Potency
CC12CNCC(C)(CN(C3(O)C(=O)Nc4ccc(Br)cc43)C1)C2=O (centres undefined) | inconclusive: 32.6 µM [inhibitor, single point]
COc1cccc(-n2nnc3c(=O)n(CC(=O)NC4CCCC4)cnc32)c1 | inactive
CCCc1nn(C)c(C(=O)Nc2ccccc2)c1Cl | inconclusive: 5.01 µM [inhibitor, full curve, poor fit]
O=C(CN1c2ccccc2S(=O)(=O)c2ccccc21)Nc1ccccc1F | inactive
O=C(c1cc(-c2ccncc2)nc2ccc(Br)cc12)N1CCN(Cc2ccc3c(c2)OCO3)CC1 | inactive
CCOC(=O)c1ccc(NC(=O)CN2CCN(c3ccccc3)CC2)cc1 | inconclusive: 14.1 µM [inhibitor, partial curve, poor fit]
COc1ccc2cc(S(=O)(=O)N3CCCC3)ccc2c1 | inactive
COc1ccc(-n2ncc(C(=O)Nc3ccc(C)cc3Cl)c2C2CCN(C(=O)OC(C)(C)C)CC2)cc1 | inconclusive: 5.01 µM [inhibitor, partial curve]
COCCCn1c(SCC(=O)Nc2ccc3c(c2)OCCO3)nnc1-c1ccoc1C | inconclusive: 1.58 µM [inhibitor, partial curve]
Cn1c(=O)n(C)c2cc(NS(=O)(=O)c3ccc4c(c3)CCCC4)ccc21 | inactive
O=C(Nc1ccccc1)c1ccc(F)c(S(=O)(=O)N2CCOCC2)c1 | inactive
CCOC(=O)c1cnn2c1[nH]c(=O)c1ccccc12 | inactive
COc1cc(/C=N/NC(=O)c2cc(-c3ccccc3Cl)nc3ccccc23)cc(OC)c1O | inconclusive: 12.6 µM [inhibitor, partial curve, poor fit]
COc1cccc(NC(=O)CSc2nc(C3CC3)nc3ccccc23)c1 | inconclusive: 35.5 µM [inhibitor, single point]
O=C(Nc1ccc2c(c1)nc1n2CCOC1)c1ccccc1 | inconclusive: 1.64 µM [activator, partial curve, poor fit]
Cc1ccc(N(CC(=O)NCCc2ccc(F)cc2)S(=O)(=O)c2ccc(Cl)c([N+](=O)[O-])c2)c(C)c1 | active: 23.1 µM
COc1ccc(CN2C(=O)c3cccnc3C2Nc2cc(Cl)ccc2OC)cc1 (centres undefined) | inactive
CCC(C)(C)n1nnnc1C(c1cccnc1)N1CCN(c2cccc(C(F)(F)F)c2)CC1 (centres undefined) | inconclusive: 29.1 µM [inhibitor, single point]
COc1ccc(CN2CNc3nc4ccccc4n3C2)cc1 | inconclusive: 3.66 µM [inhibitor, partial curve, poor fit]
C=CCc1ccc(OCC(O)CN2CCC(Cc3ccccc3)CC2)c(OC)c1 (centres undefined) | active: 12.6 µM
O=C(/C=C/c1ccco1)Nc1scc(-c2ccccc2)c1C(=O)O | inconclusive: 3.55 µM [inhibitor, partial curve, poor fit]
CCC[N+](CC#Cc1ccccc1)(CCC)CC(=O)OCC | inactive
O=C(CSc1ncccn1)N1CCN(C(c2ccccc2)c2ccccc2)CC1 | inconclusive: 16.4 µM [inhibitor, partial curve, poor fit]

An excerpt taken from the entries so far, as a working copy:
SMILES | Potency
O=C(CN1c2ccccc2S(=O)(=O)c2ccccc21)Nc1ccccc1F | inactive
O=C(c1cc(-c2ccncc2)nc2ccc(Br)cc12)N1CCN(Cc2ccc3c(c2)OCO3)CC1 | inactive
CCOC(=O)c1ccc(NC(=O)CN2CCN(c3ccccc3)CC2)cc1 | inconclusive: 14.1 µM [inhibitor, partial curve, poor fit]
COc1ccc2cc(S(=O)(=O)N3CCCC3)ccc2c1 | inactive
COc1ccc(-n2ncc(C(=O)Nc3ccc(C)cc3Cl)c2C2CCN(C(=O)OC(C)(C)C)CC2)cc1 | inconclusive: 5.01 µM [inhibitor, partial curve]
COCCCn1c(SCC(=O)Nc2ccc3c(c2)OCCO3)nnc1-c1ccoc1C | inconclusive: 1.58 µM [inhibitor, partial curve]
Cn1c(=O)n(C)c2cc(NS(=O)(=O)c3ccc4c(c3)CCCC4)ccc21 | inactive
O=C(Nc1ccccc1)c1ccc(F)c(S(=O)(=O)N2CCOCC2)c1 | inactive
CCOC(=O)c1cnn2c1[nH]c(=O)c1ccccc12 | inactive
COc1cc(/C=N/NC(=O)c2cc(-c3ccccc3Cl)nc3ccccc23)cc(OC)c1O | inconclusive: 12.6 µM [inhibitor, partial curve, poor fit]
COc1cccc(NC(=O)CSc2nc(C3CC3)nc3ccccc23)c1 | inconclusive: 35.5 µM [inhibitor, single point]
O=C(Nc1ccc2c(c1)nc1n2CCOC1)c1ccccc1 | inconclusive: 1.64 µM [activator, partial curve, poor fit]
Cc1ccc(N(CC(=O)NCCc2ccc(F)cc2)S(=O)(=O)c2ccc(Cl)c([N+](=O)[O-])c2)c(C)c1 | active: 23.1 µM
COc1ccc(CN2C(=O)c3cccnc3C2Nc2cc(Cl)ccc2OC)cc1 (centres undefined) | inactive
CCC(C)(C)n1nnnc1C(c1cccnc1)N1CCN(c2cccc(C(F)(F)F)c2)CC1 (centres undefined) | inconclusive: 29.1 µM [inhibitor, single point]
COc1ccc(CN2CNc3nc4ccccc4n3C2)cc1 | inconclusive: 3.66 µM [inhibitor, partial curve, poor fit]
C=CCc1ccc(OCC(O)CN2CCC(Cc3ccccc3)CC2)c(OC)c1 (centres undefined) | active: 12.6 µM
O=C(/C=C/c1ccco1)Nc1scc(-c2ccccc2)c1C(=O)O | inconclusive: 3.55 µM [inhibitor, partial curve, poor fit]

(further entries)

SMILES | Potency
CS(=O)(=O)N1N=C(c2ccccc2)CC1c1ccc2c(c1)OCO2 (centres undefined) | inconclusive: 2.31 µM [activator, full curve, poor fit]
CC(=O)Nc1ccc(NC(=O)c2sc3nc4n(c(=O)c3c2C)CCCCC4)cc1 | inconclusive: 7.3 µM [inhibitor, partial curve, poor fit]
O=c1c2ccccc2nc(SCc2nnc(-c3ccccc3Br)o2)n1-c1ccccc1 | inconclusive: 3.66 µM [inhibitor, partial curve, poor fit]
CCc1cc(C(=O)N2CCCC(CNC(=O)c3ccc(-c4ccccc4)cc3)C2)no1 (centres undefined) | inconclusive: 10 µM [inhibitor, partial curve, poor fit]
COc1ccc(S(=O)(=O)NCC(c2ccco2)S(=O)(=O)c2ccc(C)cc2)cc1C (centres undefined) | inconclusive: 11.2 µM [inhibitor, single point]
C[C@@H]1N[S+](=O)([O-])c2cc(Cl)ccc2O[C@H]1c1ccccc1 | inactive
CC(=O)/C(C#N)=C1\NC(=O)C(Cc2ccccc2Cl)S1 (centres undefined) | active: 2.31 µM
CCOc1ccc(-n2cnc3scc(-c4ccc(OC)c(OC)c4)c3c2=O)cc1 | inconclusive: 0.562 µM [inhibitor, full curve, poor fit]
COc1ccc(N/C=C/C(=O)c2ccc3c(c2)OCO3)cc1OC | inconclusive: 18.4 µM [inhibitor, single point]
COc1ccc(N(C(=O)c2cnccn2)C(C(=O)NC2CCCCC2)c2ccccc2)cc1 (centres undefined) | inconclusive: 14.1 µM [inhibitor, partial curve, poor fit]
COc1ccccc1CNC(=O)c1ccc(NC(=O)N2CC(C)Sc3ccccc32)cc1 (centres undefined) | inconclusive: 6.31 µM [inhibitor, full curve, poor fit]
Cc1cccc(/C=C2/SC(=O)N(Cc3ccccc3)C2=O)n1 | inactive
Cc1ccc2c(c1)-c1c(cnn1CC(=O)Nc1ccccc1N1CCN(C)CC1)CO2 | inconclusive: 29.1 µM [inhibitor, single point]
COc1ccc(NC(=O)c2sc(SCc3ccccc3)nc2N)cc1 | inconclusive: 12.6 µM [inhibitor, partial curve]
Cc1cccc(C)c1NC(=O)C1CCCN(S(=O)(=O)c2c(C)noc2/C=C/N(C)C)C1 (centres undefined) | inactive
O=C(Nc1ccc(S(=O)(=O)N2CCCC2)cc1)C1CCN(S(=O)(=O)c2ccc(F)cc2)CC1 | inconclusive: 35.5 µM [inhibitor, single point]
CCc1cc(-c2cnnn2Cc2ccccc2)ccc1-c1cn(CC(C)C)nn1 | inconclusive: 0.01 µM [inhibitor, full curve, poor fit]
N#Cc1c(NC(=O)C2CC(c3c(F)cccc3Cl)=NO2)sc2c1CCC2 (centres undefined) | inconclusive: 35.5 µM [inhibitor, single point]
COc1ccc(N(Cc2ccccc2)C(=O)c2ccccc2[N+](=O)[O-])cc1 | inconclusive: 20 µM [inhibitor, partial curve, poor fit]
COc1ccccc1C1C([N+](=O)[O-])=C(N)Oc2c1c(=O)oc1ccccc21 (centres undefined) | inactive
CCOc1ccc(NC(=O)CSc2nnc(CC)c(CC)n2)cc1 | inactive
CCOc1ccc(-c2c(C(=O)N/N=C/c3ccc(O)cc3)nnn2-c2nonc2N)cc1 | inconclusive: 4.61 µM [inhibitor, full curve, poor fit]
CC1=CC(C)C2C(=O)N(c3ccccc3)NC(=O)C2C1 (centres undefined) | inconclusive: 35.5 µM [inhibitor, single point]
